Measurements taken from the supplement of paper PMC7666118.
This is one part of the list.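 Rule for the calls: active = dose-dependent thermal stabilisation significant by F-test of dose-response against flat model at 10% FDR; inactive = not significant.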

Chains of the proteins cited; added tags and fusions are not shown. Lines headed by an entry give the natural chain unless they say otherwise; changes in a name come on top.
UniProt Q8TAK5: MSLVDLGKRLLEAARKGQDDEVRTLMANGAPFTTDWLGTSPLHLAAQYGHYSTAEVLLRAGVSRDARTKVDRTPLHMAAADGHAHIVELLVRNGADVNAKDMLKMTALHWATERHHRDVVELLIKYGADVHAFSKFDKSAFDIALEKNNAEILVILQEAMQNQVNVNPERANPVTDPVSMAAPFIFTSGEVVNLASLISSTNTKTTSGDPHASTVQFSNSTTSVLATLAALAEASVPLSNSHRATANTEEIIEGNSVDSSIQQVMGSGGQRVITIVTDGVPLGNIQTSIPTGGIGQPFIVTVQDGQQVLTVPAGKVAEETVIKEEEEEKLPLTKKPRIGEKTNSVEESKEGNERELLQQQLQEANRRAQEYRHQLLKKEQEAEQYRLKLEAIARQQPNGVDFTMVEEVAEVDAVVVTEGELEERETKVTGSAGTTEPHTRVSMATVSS
UniProt Q16774: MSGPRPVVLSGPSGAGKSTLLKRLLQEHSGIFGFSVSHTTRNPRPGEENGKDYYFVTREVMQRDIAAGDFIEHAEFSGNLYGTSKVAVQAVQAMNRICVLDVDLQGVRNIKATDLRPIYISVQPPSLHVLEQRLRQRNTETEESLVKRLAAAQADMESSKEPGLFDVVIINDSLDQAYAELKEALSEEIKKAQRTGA
UniProt Q14C86: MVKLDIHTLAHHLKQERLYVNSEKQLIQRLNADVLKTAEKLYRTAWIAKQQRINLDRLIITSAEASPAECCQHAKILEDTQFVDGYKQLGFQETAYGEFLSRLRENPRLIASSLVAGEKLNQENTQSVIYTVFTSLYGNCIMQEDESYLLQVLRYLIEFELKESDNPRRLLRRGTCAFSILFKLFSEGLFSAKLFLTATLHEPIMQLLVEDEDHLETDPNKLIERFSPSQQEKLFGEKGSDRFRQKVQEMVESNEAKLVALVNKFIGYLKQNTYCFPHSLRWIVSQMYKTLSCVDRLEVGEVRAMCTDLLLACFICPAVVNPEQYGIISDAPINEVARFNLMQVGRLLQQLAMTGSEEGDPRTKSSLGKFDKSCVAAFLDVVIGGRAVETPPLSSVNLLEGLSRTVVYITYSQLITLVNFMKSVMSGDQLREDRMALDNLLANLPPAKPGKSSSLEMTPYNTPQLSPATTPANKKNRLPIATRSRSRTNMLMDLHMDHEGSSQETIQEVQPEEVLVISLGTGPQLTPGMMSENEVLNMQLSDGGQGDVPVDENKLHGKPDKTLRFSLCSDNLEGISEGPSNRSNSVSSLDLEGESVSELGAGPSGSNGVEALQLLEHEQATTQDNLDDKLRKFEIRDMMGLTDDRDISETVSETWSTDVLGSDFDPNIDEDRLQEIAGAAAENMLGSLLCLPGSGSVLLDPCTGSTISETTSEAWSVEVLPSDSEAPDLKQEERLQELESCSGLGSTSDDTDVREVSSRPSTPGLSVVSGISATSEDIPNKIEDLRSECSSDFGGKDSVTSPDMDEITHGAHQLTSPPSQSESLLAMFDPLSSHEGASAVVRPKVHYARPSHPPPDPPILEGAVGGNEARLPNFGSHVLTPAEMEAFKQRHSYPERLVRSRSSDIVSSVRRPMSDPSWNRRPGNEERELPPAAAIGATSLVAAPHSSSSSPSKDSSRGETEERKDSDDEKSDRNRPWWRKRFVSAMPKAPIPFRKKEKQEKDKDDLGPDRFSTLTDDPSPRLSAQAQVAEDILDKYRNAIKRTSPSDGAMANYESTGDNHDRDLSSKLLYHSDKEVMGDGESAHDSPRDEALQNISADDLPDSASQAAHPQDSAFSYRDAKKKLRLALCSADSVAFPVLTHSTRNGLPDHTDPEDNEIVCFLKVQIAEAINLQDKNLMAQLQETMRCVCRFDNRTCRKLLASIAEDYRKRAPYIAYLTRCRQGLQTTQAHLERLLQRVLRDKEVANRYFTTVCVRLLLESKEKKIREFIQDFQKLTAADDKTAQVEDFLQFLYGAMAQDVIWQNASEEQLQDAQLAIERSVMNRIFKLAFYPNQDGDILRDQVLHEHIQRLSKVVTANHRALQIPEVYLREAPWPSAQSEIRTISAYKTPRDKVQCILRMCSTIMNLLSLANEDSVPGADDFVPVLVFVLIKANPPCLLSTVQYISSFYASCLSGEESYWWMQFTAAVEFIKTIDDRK
UniProt P25098: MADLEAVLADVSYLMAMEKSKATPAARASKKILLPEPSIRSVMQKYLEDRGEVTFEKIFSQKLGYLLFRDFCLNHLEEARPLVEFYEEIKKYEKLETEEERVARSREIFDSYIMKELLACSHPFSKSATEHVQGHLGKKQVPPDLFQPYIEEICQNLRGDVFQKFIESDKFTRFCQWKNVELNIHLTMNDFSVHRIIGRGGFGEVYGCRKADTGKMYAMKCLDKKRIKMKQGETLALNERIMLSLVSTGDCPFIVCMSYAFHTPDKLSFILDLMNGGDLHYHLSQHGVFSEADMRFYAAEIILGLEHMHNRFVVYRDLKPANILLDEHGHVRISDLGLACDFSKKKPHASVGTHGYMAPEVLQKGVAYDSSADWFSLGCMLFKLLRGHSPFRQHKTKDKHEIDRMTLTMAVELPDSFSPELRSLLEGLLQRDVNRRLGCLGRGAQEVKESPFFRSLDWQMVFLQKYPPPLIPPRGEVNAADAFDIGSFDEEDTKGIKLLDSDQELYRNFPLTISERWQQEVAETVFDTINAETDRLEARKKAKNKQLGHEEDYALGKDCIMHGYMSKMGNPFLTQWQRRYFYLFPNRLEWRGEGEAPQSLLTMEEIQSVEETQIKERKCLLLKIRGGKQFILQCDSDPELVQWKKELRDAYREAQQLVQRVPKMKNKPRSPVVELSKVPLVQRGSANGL
UniProt Q92769, whole entry: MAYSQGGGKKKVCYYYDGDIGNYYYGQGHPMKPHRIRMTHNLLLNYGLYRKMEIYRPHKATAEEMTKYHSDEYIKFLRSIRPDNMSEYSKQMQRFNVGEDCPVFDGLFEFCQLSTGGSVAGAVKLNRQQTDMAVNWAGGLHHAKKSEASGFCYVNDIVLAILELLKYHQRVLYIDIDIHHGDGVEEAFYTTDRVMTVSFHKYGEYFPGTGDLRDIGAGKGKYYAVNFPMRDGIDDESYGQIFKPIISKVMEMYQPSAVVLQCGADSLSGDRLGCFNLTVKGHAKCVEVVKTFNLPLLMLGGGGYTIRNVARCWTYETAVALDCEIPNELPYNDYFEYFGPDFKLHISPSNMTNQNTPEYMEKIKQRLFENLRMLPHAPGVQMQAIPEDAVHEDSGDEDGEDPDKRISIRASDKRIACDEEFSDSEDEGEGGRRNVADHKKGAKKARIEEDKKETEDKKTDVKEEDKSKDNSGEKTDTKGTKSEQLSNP
UniProt P13984, whole entry: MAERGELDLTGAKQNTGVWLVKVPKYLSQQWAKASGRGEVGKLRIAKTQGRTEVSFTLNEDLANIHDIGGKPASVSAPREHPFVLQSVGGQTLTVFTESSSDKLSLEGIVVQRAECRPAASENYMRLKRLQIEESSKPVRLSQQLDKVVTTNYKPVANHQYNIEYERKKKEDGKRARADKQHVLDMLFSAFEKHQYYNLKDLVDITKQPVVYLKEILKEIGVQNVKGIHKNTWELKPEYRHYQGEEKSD
UniProt P14317: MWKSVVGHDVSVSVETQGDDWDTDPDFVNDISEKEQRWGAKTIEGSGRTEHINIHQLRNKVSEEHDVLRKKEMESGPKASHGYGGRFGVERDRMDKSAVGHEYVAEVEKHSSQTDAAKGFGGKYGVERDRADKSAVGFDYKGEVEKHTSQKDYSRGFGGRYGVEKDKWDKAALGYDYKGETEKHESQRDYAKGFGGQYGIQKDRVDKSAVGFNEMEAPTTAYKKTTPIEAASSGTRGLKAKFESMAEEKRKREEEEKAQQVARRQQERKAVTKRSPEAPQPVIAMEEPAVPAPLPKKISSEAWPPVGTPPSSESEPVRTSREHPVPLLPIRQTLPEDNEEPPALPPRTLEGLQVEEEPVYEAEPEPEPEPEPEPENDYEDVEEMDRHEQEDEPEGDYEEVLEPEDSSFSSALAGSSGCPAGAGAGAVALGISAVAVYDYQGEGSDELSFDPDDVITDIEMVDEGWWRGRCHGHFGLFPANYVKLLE
UniProt Q7Z4Q2: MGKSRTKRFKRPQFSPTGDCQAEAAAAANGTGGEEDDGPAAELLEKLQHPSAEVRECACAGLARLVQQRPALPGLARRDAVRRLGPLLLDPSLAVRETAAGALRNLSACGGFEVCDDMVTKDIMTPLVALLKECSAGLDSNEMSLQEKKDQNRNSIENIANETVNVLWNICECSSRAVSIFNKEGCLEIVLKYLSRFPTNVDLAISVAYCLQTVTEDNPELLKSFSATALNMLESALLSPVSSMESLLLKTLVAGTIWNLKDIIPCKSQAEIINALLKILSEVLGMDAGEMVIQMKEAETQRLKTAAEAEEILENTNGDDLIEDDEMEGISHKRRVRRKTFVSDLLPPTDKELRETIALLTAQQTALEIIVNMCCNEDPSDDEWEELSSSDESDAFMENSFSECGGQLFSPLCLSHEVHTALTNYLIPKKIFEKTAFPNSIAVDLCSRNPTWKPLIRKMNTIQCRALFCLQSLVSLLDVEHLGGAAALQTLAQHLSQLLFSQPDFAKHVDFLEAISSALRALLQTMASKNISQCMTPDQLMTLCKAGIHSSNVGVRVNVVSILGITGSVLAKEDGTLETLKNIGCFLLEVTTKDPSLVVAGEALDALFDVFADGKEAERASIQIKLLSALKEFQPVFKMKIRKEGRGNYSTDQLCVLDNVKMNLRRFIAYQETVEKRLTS
UniProt Q8TDQ7: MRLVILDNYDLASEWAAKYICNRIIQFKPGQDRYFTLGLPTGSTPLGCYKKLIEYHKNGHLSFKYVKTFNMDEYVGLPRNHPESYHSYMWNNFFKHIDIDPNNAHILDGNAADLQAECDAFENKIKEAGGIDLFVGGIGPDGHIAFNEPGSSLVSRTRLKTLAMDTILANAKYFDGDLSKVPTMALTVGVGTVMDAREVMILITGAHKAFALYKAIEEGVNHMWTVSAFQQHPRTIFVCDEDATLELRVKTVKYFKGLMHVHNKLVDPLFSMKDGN
UniProt Q8WVB3: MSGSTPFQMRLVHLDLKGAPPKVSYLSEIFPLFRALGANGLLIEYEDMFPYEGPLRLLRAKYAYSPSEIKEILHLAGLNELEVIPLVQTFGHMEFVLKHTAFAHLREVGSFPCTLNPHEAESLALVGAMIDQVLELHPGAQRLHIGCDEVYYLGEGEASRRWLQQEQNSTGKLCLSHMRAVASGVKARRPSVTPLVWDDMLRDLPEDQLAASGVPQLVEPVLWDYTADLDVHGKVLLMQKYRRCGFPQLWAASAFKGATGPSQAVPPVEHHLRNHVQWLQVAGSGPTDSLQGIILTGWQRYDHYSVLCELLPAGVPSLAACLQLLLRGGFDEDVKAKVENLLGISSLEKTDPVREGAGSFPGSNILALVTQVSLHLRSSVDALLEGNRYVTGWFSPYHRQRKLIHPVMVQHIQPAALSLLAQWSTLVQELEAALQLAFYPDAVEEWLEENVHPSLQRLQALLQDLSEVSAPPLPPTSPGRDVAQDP
UniProt Q96IJ6: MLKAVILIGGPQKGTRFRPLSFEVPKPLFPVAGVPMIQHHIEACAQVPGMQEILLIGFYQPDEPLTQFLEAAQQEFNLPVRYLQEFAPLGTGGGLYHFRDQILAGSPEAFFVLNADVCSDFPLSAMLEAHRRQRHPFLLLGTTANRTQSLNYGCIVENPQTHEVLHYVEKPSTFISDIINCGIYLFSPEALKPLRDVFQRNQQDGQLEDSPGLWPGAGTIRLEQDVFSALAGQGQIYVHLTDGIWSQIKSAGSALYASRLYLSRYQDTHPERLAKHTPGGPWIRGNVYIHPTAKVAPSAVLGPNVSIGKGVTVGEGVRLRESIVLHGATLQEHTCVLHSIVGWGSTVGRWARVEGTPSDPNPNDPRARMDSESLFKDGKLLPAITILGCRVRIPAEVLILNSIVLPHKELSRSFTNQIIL
UniProt Q86SX6: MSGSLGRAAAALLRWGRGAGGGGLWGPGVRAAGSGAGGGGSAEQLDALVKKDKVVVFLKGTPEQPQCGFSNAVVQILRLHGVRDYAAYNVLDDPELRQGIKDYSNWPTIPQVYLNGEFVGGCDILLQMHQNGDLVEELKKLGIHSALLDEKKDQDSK
UniProt P51991: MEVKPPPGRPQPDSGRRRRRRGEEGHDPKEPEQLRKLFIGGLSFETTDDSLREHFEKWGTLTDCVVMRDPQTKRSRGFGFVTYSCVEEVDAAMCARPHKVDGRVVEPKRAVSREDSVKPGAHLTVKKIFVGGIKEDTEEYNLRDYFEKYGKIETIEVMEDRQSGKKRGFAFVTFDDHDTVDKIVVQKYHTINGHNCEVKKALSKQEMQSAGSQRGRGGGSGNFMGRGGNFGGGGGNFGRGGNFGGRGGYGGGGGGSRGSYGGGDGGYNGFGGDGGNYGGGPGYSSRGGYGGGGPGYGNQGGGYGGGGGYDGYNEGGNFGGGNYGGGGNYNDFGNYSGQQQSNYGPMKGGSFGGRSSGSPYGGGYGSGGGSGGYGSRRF

The targets below were run with Nc1nc2c(ncn2[C@@H]2O[C@H](COP(=O)(O)OP(=O)(O)OP(=O)(O)O)[C@@H](O)[C@H]2O)c(=O)[nH]1 (assay: dose-dependent thermal stabilisation call (2D-TPP, DLPTP, 10% FDR) (binary (1 = stabilised)); higher = stabilised by the compound). Conditions: system: Jurkat gel-filtered lysate; concentration range 1-500 µM.
Procedure: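 2D thermal proteome profiling in gel-filtered Jurkat E6.1 lysate (2 mg/ml) treated with NaGTP (0, 1, 10, 100, 500 uM) for 10 min at room temperature, then heated 3 min at one of 12 temperatures (42-63.9 C). Soluble protein was quantified by TMT10 MS. The value is the DLPTP call of the paper: dose-dependent thermal stabilisation over all temperatures at 10% FDR (F-test of a dose-response against a flat model); one experiment, one call per tested protein.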

| Target | dose-dependent thermal stabilisation call |
| --- | --- |
| HIST1H4A, HIST1H4B, HIST1H4C, HIST1H4D, HIST1H4E, HIST1H4F, HIST1H4H, HIST1H4I, HIST1H4J, HIST1H4K, HIST1H4L, HIST2H4A, HIST2H4B, HIST4H4 (UniProt P62805) | inactive: 0 |
| HECTD3 (UniProt Q5T447) | inactive: 0 |
| GOLGA3 (UniProt Q08378) | inactive: 0 |
| GABPB2 (UniProt Q8TAK5) | inactive: 0 |
| GDI2 (UniProt P50395) | active: 1 |
| GUK1 (UniProt Q16774) | active: 1 |
| GAPVD1 (UniProt Q14C86) | inactive: 0 |
| GUSB (UniProt P08236) | inactive: 0 |
| GNL1 (UniProt P36915) | active: 1 |
| GRK2 (UniProt P25098) | inactive: 0 |
| HDAC2 (UniProt Q92769) | inactive: 0 |
| GPATCH4 (UniProt Q5T3I0) | inactive: 0 |
| GTF2F2 (UniProt P13984) | inactive: 0 |
| GCAT (UniProt O75600) | inactive: 0 |
| HIST1H1C (UniProt P16403) | inactive: 0 |
| GTF3C2 (UniProt Q8WUA4) | inactive: 0 |
| GAN (UniProt Q9H2C0) | inactive: 0 |
| HCLS1 (UniProt P14317) | inactive: 0 |
| GPATCH8 (UniProt Q9UKJ3) | inactive: 0 |
| GPBP1 (UniProt Q86WP2) | inactive: 0 |

Random excerpt: two records from the list

| Target | dose-dependent thermal stabilisation call |
| --- | --- |
| GUK1 (UniProt Q16774) | active: 1 |
| GNL1 (UniProt P36915) | active: 1 |

The list goes on.

| Target | dose-dependent thermal stabilisation call |
| --- | --- |
| HEATR3 (UniProt Q7Z4Q2) | inactive: 0 |
| GNPDA2 (UniProt Q8TDQ7) | inactive: 0 |
| GLTP (UniProt Q9NZD2) | inactive: 0 |
| HEXDC (UniProt Q8WVB3) | inactive: 0 |
| GMPPA (UniProt Q96IJ6) | active: 1 |
| HK1 (UniProt P19367) | active: 1 |
| HERC1 (UniProt Q15751) | inactive: 0 |
| GFPT1 (UniProt Q06210) | inactive: 0 |
| HAUS8 (UniProt Q9BT25) | inactive: 0 |
| H2AFY (UniProt O75367) | inactive: 0 |
| GLRX5 (UniProt Q86SX6) | inactive: 0 |
| HDAC4 (UniProt P56524) | inactive: 0 |
| HIST1H2AG, HIST1H2AI, HIST1H2AK, HIST1H2AL, HIST1H2AM (UniProt P0C0S8) | inactive: 0 |
| GNAI2 (UniProt P04899) | active: 1 |
| HNRNPA3 (UniProt P51991) | active: 1 |
| GRN (UniProt P28799) | inactive: 0 |
| GTF2F1 (UniProt P35269) | inactive: 0 |
| GPS2 (UniProt Q13227) | inactive: 0 |
| HAGH (UniProt Q16775) | inactive: 0 |
| GSTM2 (UniProt P28161) | active: 1 |
